These are yes or no findings as the source states them, for the method shown. Binding calls can cover weak binding; strength is not graded here.
Biological target: HLA-A*02:01 (human)
Test: UV-ligand exchange + anti-b2m ELISA; peptide exchange yield grade (+ >=10%, ++ >=20%, +++ >=50%, ++++ >=75%)

binding, binds:
NLLEKENYL [… (SEQ ID NO: 57)]
AMADKMDMSL [… (SEQ ID NO: 58)]
LLTDNVVKL [… (SEQ ID NO: 59)]
VLDEDEPRFL [… (SEQ ID NO: 60)]
KLLKLFQGV [… (SEQ ID NO: 61)]
YLAPENGYL [… (SEQ ID NO: 62)]
FLAELPGSLSL [… (SEQ ID NO: 6)]
KLFSILSTV [… (SEQ ID NO: 63)]
KTLGKLWRL [… (SEQ ID NO: 64)]
GLDDGPDFL [… (SEQ ID NO: 66)]
SLNDLEKDVMLL [… (SEQ ID NO: 67)]
SILQFVHMV [… (SEQ ID NO: 68)]
GMLNEAEGKAIKL [… (SEQ ID NO: 69)]
MISELEVRL [… (SEQ ID NO: 70)]
RLWTEIPTAI [… (SEQ ID NO: 71)]
YLLDYPNNLL [… (SEQ ID NO: 72)]
YLFDIAVSM [… (SEQ ID NO: 73)]
YLTRHLAVL [… (SEQ ID NO: 7)]
YLMGFLHAV [… (SEQ ID NO: 74)]
EMIENIQSV [… (SEQ ID NO: 75)]
YLIGEKQHYL [… (SEQ ID NO: 76)]
SLLKRDFGA [… (SEQ ID NO: 77)]
ALDPELLLL [… (SEQ ID NO: 78)]
SLAADQLLKL [… (SEQ ID NO: 79)]
QVDEVVDIMRV [… (SEQ ID NO: 80)]
ALLSQQTHL [… (SEQ ID NO: 81)]
QLYEEPDTKL [… (SEQ ID NO: 82)]
LTIEDGIFEV [… (SEQ ID NO: 83)]
ALMLQGVDLL [… (SEQ ID NO: 8)]
SMVEDITGLRL [… (SEQ ID NO: 84)]
ILHDINSDGVL [… (SEQ ID NO: 85)]
KVFPGKISV [… (SEQ ID NO: 86)]
LLFDAPDLRL [… (SEQ ID NO: 87)]
KLDIKVETV [… (SEQ ID NO: 88)]
SLIEYEFRV [… (SEQ ID NO: 89)]
GLLKPGLNVVL [… (SEQ ID NO: 90)]
TVDVATPSV [… (SEQ ID NO: 91)]
WIDDTSAFV [… (SEQ ID NO: 92)]
SLQELRLLL [… (SEQ ID NO: 93)]
ILDDHLSRV [… (SEQ ID NO: 9)]
KSMDIVLTV [… (SEQ ID NO: 94)]
AILDAHIEV [… (SEQ ID NO: 95)]
KLYSRLVYV [… (SEQ ID NO: 96)]
ALWWGVVTV [… (SEQ ID NO: 97)]
AMNGKSFSV [… (SEQ ID NO: 98)]
KLLEVDLDTV [… (SEQ ID NO: 99)]
SLDDFLATA [… (SEQ ID NO: 100)]
GLSEGHTFQV [… (SEQ ID NO: 101)]
KILVSLIEV [… (SEQ ID NO: 102)]
FLFGYPKRL [… (SEQ ID NO: 103)]

Reference: patent US20230203114A1
